Laboratory results taken from PubChem BioAssay AID2685 (National Center for Advancing Translational Sciences (NCATS), 2010).
The other results are listed elsewhere or left out. Further columns of the screen follow, without active or inactive calls. Most of these compounds were active or inconclusive in the main read-out, so they are no random draw. The note in brackets gives the kind of curve behind each potency; many fits are weak.

Experiment: qHTS Assay for Lipid Storage Modulators in Drosophila S3 Cells;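 on cell number change: cells counted by Cell Tracker Red CMTPX staining in the red channel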
Conditions: BODIPY lipid droplet fluorescence, 18-24 h; for cell number change: measured here: cell count max response, cells fed with added oleic acid
Method in brief: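 Drosophila S3 cells got compounds at several concentrations plus oleic acid (400 uM solution). Laser-scanning cytometry with 488 nm excitation read lipid droplets at 500-530 nm and cells at 575-640 nm. Percent activity was relative to 20 uM Triacsin C.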

[1] = measured here: lipid fluorescence (Fed channel) AC50, cells fed with added oleic acid
[2] = measured here: cell number channel AC50, cells fed with added oleic acid

SMILES: CCn1cnc2cc(NCc3nc4ccccc4n3Cc3ccccc3)ccc21
- cell number change: -19.6%
- AC50 [1]: 25.9 µM [falling, single point]

SMILES: CCOC(=O)N1CCN(CC(O)COc2cc(C)cc(C)c2)CC1 (stereo unspecified)
- cell number change: 34.8%
- AC50 [2]: 16.4 µM [rising, partial curve]

SMILES: O=C(Nc1ccc(Cl)cc1)C1CCCN1C(=O)NCc1ccccc1 (stereo unspecified)
- AC50 [1]: 29.1 µM [rising, single point]

SMILES: Cc1ccccc1OCC(=O)NNC(=S)NC(=O)c1ccco1
- cell number change: -10.2%

SMILES: CCCCNC(=O)c1onc(CSc2ccc(Cl)cc2)c1C(=O)O
- cell number change: 5.03%
- AC50 [1]: 4.61 µM [falling, single point]

SMILES: CCOP(=O)(Cc1ccc(C(C)(C)CC(C)=O)o1)OCC
- cell number change: 17.5%
- AC50 [1]: 29.1 µM [rising, single point]

SMILES: O=C(Cn1c(SCc2ccccc2)nc2ccccc21)N1CCOCC1
- cell number change: -22.1%
- AC50 [1]: 0.206 µM [falling, full curve, poor fit]

SMILES: Cc1cc(C)c(S(=O)(=O)Nc2ccnc(-c3cccnc3)n2)c(C)c1
- cell number change: 41.3%
- AC50 [2]: 5.8 µM [rising, full curve, poor fit]
- AC50 [1]: 0.517 µM [rising, full curve]

SMILES: CCc1ccc(NC(=O)c2noc3c2CCC3)cc1
- cell number change: 45%
- AC50 [2]: 20.6 µM [rising, single point]

SMILES: CN1CCCC(CC2Oc3ccccc3Sc3ccccc32)C1 (stereo unspecified)
- cell number change: -14%
- AC50 [2]: 0.326 µM [rising, partial curve, poor fit]
- AC50 [1]: 18.4 µM [falling, single point]

SMILES: COc1ccccc1CC(=O)N1CCC(CCC(=O)NC2CC2)CC1
- cell number change: 16.7%
- AC50 [2]: 6.51 µM [rising, single point]

SMILES: CC(C)(C)NC(=O)COC(=O)c1snc(C(=O)NC2CCCCC2)c1N
- cell number change: -197%
- AC50 [2]: 29.1 µM [falling, single point]
- AC50 [1]: 6.51 µM [rising, single point]

SMILES: CCOC(=O)c1c(/N=C/N(C)C)sc(C(=O)OC)c1C
- AC50 [1]: 29.1 µM [falling, single point]

SMILES: Nc1nonc1NC(=O)CSc1nc2ccccc2s1
- cell number change: -68.3%
- AC50 [2]: 2.31 µM [falling, partial curve, poor fit]
- AC50 [1]: 1.16 µM [falling, full curve]

SMILES: Cc1cccc(OCC(=O)NCC(=O)N/N=C/c2ccc(O)cc2O)c1
- cell number change: -29.8%
- AC50 [1]: 16.4 µM [falling, partial curve]

SMILES: Cc1csc2ncnc(NCCc3ccccn3)c12
- cell number change: -47%
- AC50 [2]: 32.6 µM [falling, partial curve]

SMILES: COc1ccc(N2CC(C(=O)Nc3ccc([N+](=O)[O-])cc3Br)CC2=O)cc1 (stereo unspecified)
- cell number change: 7.5%

SMILES: COc1c(O)cccc1-c1nnn(CCC(=O)OCC(=O)c2ccccc2)n1
- cell number change: 0.448%
- AC50 [1]: 23.1 µM [falling, single point]

SMILES: CCCS(=O)(=O)c1nc(S(=O)(=O)c2ccc(C)cc2)c(N2CCN(CC)CC2)s1
- AC50 [2]: 0.651 µM [rising, single point]

SMILES: COc1ccc(-c2[nH]ncc2CN2CCC(OCc3ccccn3)CC2)c(F)c1
- cell number change: 2.32%
- AC50 [1]: 3.26 µM [rising, full curve]

SMILES: COc1ccc(C2OC(=O)C(C)(C)C(=O)C2(C)C)cc1OC (stereo unspecified)
- cell number change: -8.75%
- AC50 [2]: 0.058 µM [falling, full curve, poor fit]

SMILES: CC(C)(O)C#Cc1ccc(CN2CCCC(CO)(Cc3cccc(Cl)c3)C2)cc1 (stereo unspecified)
- cell number change: -19.7%
- AC50 [1]: 29.1 µM [falling, single point]

SMILES: CN(CC1CCCN(CCc2ccc(Cl)cc2)C1)C(=O)CC(F)(F)F (stereo unspecified)
- cell number change: 23.3%
- AC50 [1]: 9.2 µM [rising, partial curve, poor fit]

SMILES: Cc1ccc(N2C(=O)C3CCCN3C2=S)cc1 (stereo unspecified)
- cell number change: -4.26%
- AC50 [2]: 0.82 µM [rising, full curve]

SMILES: O=C(CCCc1nc(-c2ccc(Cl)cc2)no1)NC1CCCCC1
- cell number change: 6.09%

SMILES: O=C(N/N=C/c1ccccn1)c1ccc([N+](=O)[O-])cc1Cl
- cell number change: 6.93%
- AC50 [1]: 0.58 µM [rising, single point]

SMILES: Cc1ccc(CNc2cnccn2)s1
- cell number change: 23.4%

SMILES: CCCCCCC1/C(=N\NC(=O)c2ccccc2)CCC1C(=O)OC (stereo unspecified)
- cell number change: 14.9%
- AC50 [1]: 0.731 µM [rising, full curve, poor fit]

SMILES: Nc1ccccc1-c1nc2ccccc2[nH]c1=O
- AC50 [1]: 6.51 µM [rising, single point]

SMILES: N#C/C(=C\c1ccc(OCc2ccccc2)cc1)C(=O)Nc1ccc(C(=O)O)cc1
- AC50 [1]: 29.1 µM [falling, single point]

SMILES: O=C(Nc1ncc(Br)s1)C(Cc1ccccc1)n1cccc1 (stereo unspecified)
- cell number change: -56.4%
- AC50 [2]: 18.4 µM [falling, single point]
- AC50 [1]: 14.6 µM [falling, partial curve]

SMILES: COc1cc(NC(=O)CN2C(=O)NC(c3ccccc3)(c3ccccc3)C2=O)c(C)cc1[N+](=O)[O-]
- cell number change: 27.1%
- AC50 [1]: 7.31 µM [rising, partial curve]

SMILES: Cc1ccccc1C(=O)NCC(=O)Nc1ccccc1C(F)(F)F
- cell number change: 31.7%
- AC50 [2]: 6.51 µM [rising, single point]

SMILES: Cc1cc(C)nc(-n2nc(C)cc2NC(=O)c2cccc(S(=O)(=O)N(C)C)c2)n1
- cell number change: 5.83%

SMILES: COc1ccc(S(=O)(=O)/C(C#N)=C/Nc2ccc(NC(C)=O)cc2)cc1
- AC50 [2]: 6.51 µM [rising, single point]
- AC50 [1]: 3.66 µM [rising, single point]

SMILES: CC(OC(=O)Cn1c(C(F)(F)F)nc2ccccc21)C(=O)N1CCCc2ccccc21 (stereo unspecified)
- cell number change: 55.6%
- AC50 [2]: 2.31 µM [rising, full curve]

SMILES: NC(=O)CSc1nnc(-c2ccco2)n1N
- cell number change: -43.5%
- AC50 [2]: 0.82 µM [falling, full curve]
- AC50 [1]: 20.6 µM [falling, partial curve]

SMILES: CCc1nn(CC(=O)NCCc2ccc(OC)cc2OC)c(=O)c2cc3occc3n12
- cell number change: -17.1%
- AC50 [1]: 0.13 µM [rising, full curve, poor fit]

SMILES: COc1ccc(CCNC(=O)CN2c3cccc4cccc(c34)S2(=O)=O)cc1
- AC50 [1]: 0.58 µM [rising, full curve]

SMILES: COc1ccccc1/C=C/C(=O)OCCCN(C)C
- cell number change: 67.5%
- AC50 [1]: 0.708 µM [falling, full curve]

SMILES: COc1cc2c(=O)n(CCC(=O)NCC3CCCO3)c(=O)n(CC(=O)Nc3ccccc3C)c2cc1OC (stereo unspecified)
- cell number change: 5.13%
- AC50 [1]: 6.51 µM [falling, partial curve, poor fit]

SMILES: COc1cc(O)c(C(CC(=O)N2CCN(c3ccccc3)CC2)c2ccc3c(c2)OCO3)c(OC)c1 (stereo unspecified)
- cell number change: -0.327%
- AC50 [1]: 6.51 µM [rising, partial curve, poor fit]

SMILES: CCN1CCN(c2ncnc3c2cnn3-c2ccc(C)cc2C)CC1
- cell number change: 26.8%
- AC50 [1]: 14.6 µM [rising, partial curve, poor fit]

SMILES: O=C(NCc1ccccc1)Nc1cccc2ccccc12
- AC50 [1]: 0.00461 µM [falling, full curve, poor fit]

SMILES: COc1ccccc1C1C=C(c2ccc(Cl)cc2)Nc2nc(NS(C)(=O)=O)nn21 (stereo unspecified)
- cell number change: -76.3%
- AC50 [2]: 29.1 µM [falling, single point]

SMILES: O=C(N/N=C/c1ccc2c(c1)OCO2)C(=O)Nc1cccc(Cl)c1
- cell number change: 9.57%

SMILES: O=C(c1ccccc1-c1ccccc1)N1CCCCC1
- AC50 [2]: 1.16 µM [falling, single point]

SMILES: NC(=S)Nc1nccc(-c2cccs2)n1
- cell number change: 0.662%
- AC50 [2]: 6.51 µM [falling, single point]
- AC50 [1]: 6.51 µM [falling, single point]

SMILES: CCCCn1c(N)nc2ccccc21
- cell number change: 2.98%
- AC50 [1]: 1.16 µM [rising, full curve, poor fit]

SMILES: Cc1cc(N2CCOCC2)c2c(N)c(C)cc(C)c2n1
- cell number change: -9.01%
- AC50 [1]: 2.06 µM [rising, partial curve]

SMILES: COc1cccc(Nc2nc(=O)[nH]nc2C)c1
- cell number change: 9.34%
- AC50 [2]: 6.51 µM [falling, partial curve, poor fit]

SMILES: COc1ccc(-c2cc(C(=O)Nc3cc(Cl)ccc3O)no2)cc1
- cell number change: 11.1%

SMILES: Cc1ccc(CNC(=O)c2ccc([N+](=O)[O-])o2)cc1
- cell number change: -22%
- AC50 [1]: 29.1 µM [falling, single point]

SMILES: CCN(CC(=O)NCc1cccs1)C(=O)/C=C/c1ccc(OC)c(OC)c1
- cell number change: 16.4%
- AC50 [2]: 4.11 µM [rising, single point]

SMILES: O=C/C=C/c1coc2ccc3ccccc3c2c1=O
- cell number change: 12.3%
- AC50 [1]: 4.11 µM [falling, single point]

SMILES: Cc1ccc(NCc2n[nH]c(=S)n2-c2ccccc2)cc1
- cell number change: 12%
- AC50 [1]: 1.84 µM [rising, partial curve]

SMILES: COCCNC(=O)C(c1ccc(O)cc1)N(Cc1ccco1)C(=O)CCC(=O)Nc1nccs1 (stereo unspecified)
- AC50 [2]: 2.06 µM [falling, partial curve]

SMILES: NC(=O)c1cc[n+](CC(=O)c2ccc(NC(=O)c3ccccc3)cc2)cc1
- cell number change: 70.2%
- AC50 [2]: 18.4 µM [rising, single point]

SMILES: CC(OC(=O)Cc1n[nH]c(=O)c2ccccc12)C(=O)Nc1cc(Cl)cc(Cl)c1 (stereo unspecified)
- cell number change: 30.2%
- AC50 [2]: 29.1 µM [rising, single point]

SMILES: Oc1ccc2ccccc2c1N=Nc1ccccc1F
- cell number change: -66.3%
- AC50 [2]: 32.6 µM [falling, single point]
- AC50 [1]: 20.6 µM [falling, single point]

SMILES: CN(C)c1c(F)cc(C(=O)NC(=O)NCc2cccnc2)cc1F
- cell number change: 18.6%
- AC50 [2]: 2.06 µM [rising, partial curve]
- AC50 [1]: 6.51 µM [rising, single point]

SMILES: CCC(Sc1nc(N)c(NC(=O)c2ccc(OC)cc2)c(=O)[nH]1)C(=O)O (stereo unspecified)
- AC50 [2]: 6.51 µM [falling, single point]
